# In US20210023223A1, “HYDROCARBON / LIPID - CAROTENOID COMPLEXES” (IP SCIENCE LIMITED, priority 2018, published 2021):
# Experiments:
# [1] = Vitamin B12 in cooked wild salmon
# [2] = Cooking time of wild salmon at 180° C.; settings: for Cooking time for the wild salmon: control 24 minutes
SMILES,Vitamin B12 level in cooked fish vs control olive oil [1],Reduction of cooking time for the wild salmon [2] [%],Cooking time for the wild salmon [2] [min]
"CC1=C(/C=C/C(C)=C/C=C/C(C)=C/C=C/C=C(C)/C=C/C=C(C)/C=C/C2=C(C)C(=O)[C@@H](O)CC2(C)C)C(C)(C)C[C@H](O)C1=O [Astaxanthin, astaxanthin]",did not translate to any significant preservation,40,14
CC(C)=CCC/C(C)=C/C=C/C(C)=C/C=C/C(C)=C/C=C/C=C(C)/C=C/C=C(C)/C=C/C=C(\C)CCC=C(C)C [Lycopene],15 fold,40,14
